# PubChem BioAssay AID1487 (National Center for Advancing Translational Sciences (NCATS), 2009)
# The list shows a part of the results. These are further read-outs of the screen, such as a control signal, another cell line or another target. No call is given for them. Compounds called inactive in the main read-out are mostly missing here. The note in brackets gives the kind of curve behind each potency; many fits are weak.
# Assay: qHTS Assay for Modulators of Lamin A Splicing
# Conditions: HeLa LMNA splicing GFP/RFP minigene ratio, 48 h
# Summary of the method: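 S3 HeLa cells stably expressing lamin A-EGFP splicing minigene plus DsRed2, 600 cells/well, 48 h compound exposure at 37C. Laser-scanning cytometry; analysed as GFP (500-530 nm)/RFP (575-640 nm) total intensity ratio; 0.5% DMSO vehicle.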
# [1] = measured here: GFP splicing reporter channel
# [2] = measured here: RFP viability control channel
Compound,AC50 [1],AC50 [2]
Cc1ccccc1N1C(N)=NC(N)=NC1(C)C,"5.01 µM [falling, partial curve]",–
CCOc1cc(C(=O)Nc2cc(C)ccn2)cc(OCC)c1OCC,"14.1 µM [rising, partial curve]","11.2 µM [rising, partial curve]"
CC(C)(C)OC(=O)NCC(=O)Oc1cc2oc(=O)cc(-c3ccccc3)c2cc1Cl,–,"12.6 µM [rising, partial curve]"
O=C(NCc1ccncc1)/C(=C\c1ccc(F)cc1)NC(=O)c1ccccc1,–,"22.4 µM [rising, single point]"
Nc1nc2ccccc2n1/N=C/c1ccc(-c2ccccc2)o1,"20 µM [rising, partial curve, poor fit]","12.6 µM [rising, partial curve]"
O=C(Nc1ccc(N2CCN(C(=O)c3ccccc3)CC2)c(Cl)c1)c1ccco1,–,"12.6 µM [rising, single point]"
COc1nc(N(C)S(=O)(=O)c2ccc(C)cc2)nc(C)c1Cl,–,"11.2 µM [rising, partial curve]"
Nn1c(SCc2ccc(Br)cc2)nnc1-c1ccccn1,–,"0.00501 µM [falling, full curve, poor fit]"
Cc1ccc(N(CC(=O)NCc2ccc(F)cc2)C(=O)c2csnn2)c(C)c1,–,"0.0398 µM [rising, full curve, poor fit]"
Cc1ccc(Nc2nnc(SCC(=O)Nc3cccc(S(=O)(=O)NC4=NCCCCC4)c3)s2)c(C)c1,"10 µM [rising, single point]",–
CC(C)(C)c1ccc(C(=O)NCCn2c(N)c(C#N)c3nc4ccccc4nc32)cc1,"7.08 µM [rising, partial curve]","8.91 µM [rising, partial curve]"
COc1ccc(Nc2nc(N)nc(CSC(=S)N3CCN(c4ccccc4)CC3)n2)cc1,–,"25.1 µM [rising, single point]"
O=C(CCN1CCC(c2ccccc2)C1)c1cccs1 (stereo not drawn),–,"35.5 µM [rising, single point]"
O=C(Cn1c(C(F)(F)F)nc2ccccc21)Oc1cccc(C(F)(F)F)c1,–,"0.562 µM [falling, full curve, poor fit]"
O=C1CCn2nc(-c3ccc(Cl)cc3)cc2N1,"3.16 µM [falling, full curve]","6.31 µM [falling, full curve]"
CSc1cnc2c(N)nc(N(C)C)nc2n1,–,"35.5 µM [rising, single point]"
CCN(CC)S(=O)(=O)c1ccc(OC)c(NC(=S)Nc2cccc(C)c2C)c1,–,"22.4 µM [rising, partial curve, poor fit]"
Fc1ccc2c(c1)C(c1cccnc1)=NNC(c1cccs1)=N2,–,"31.6 µM [rising, single point]"
COc1ccc(/C=C/C(=O)C(C(N)=O)=C2SCCS2)cc1,–,"11.2 µM [rising, partial curve]"

Compound,AC50 [1],AC50 [2]
Cc1c(CNC(=O)C2CC2)c(-n2cccc2)n(Cc2ccccc2)c1C,"0.0708 µM [falling, full curve, poor fit]","0.00501 µM [falling, full curve, poor fit]"
COc1ccc(NCc2nnc3n2CCCCC3)c(OC)c1,"2.51 µM [rising, single point]",–
O=C(CN1C(=O)C2(SCC(=O)N2c2ccc(F)cc2)c2ccccc21)NCCc1ccccc1 (stereo not drawn),–,"0.794 µM [falling, full curve, poor fit]"
CC1C2NC(=O)N(Cc3ccccc3)C1(C)Oc1ccccc12 (stereo not drawn),"35.5 µM [falling, single point]","3.16 µM [falling, partial curve, poor fit]"
COCc1[nH][nH]c(=O)c1C=Nc1ccc(C(F)(F)F)cc1,"0.0891 µM [rising, full curve, poor fit]",–
NC(=O)c1cccn1Cc1ccccc1Cl,–,"0.0447 µM [falling, full curve, poor fit]"
O=C(O)c1cccnc1,"35.5 µM [rising, single point]",–
COc1cccc(-c2cc(C(F)(F)F)nc(-n3ccc([N+](=O)[O-])n3)n2)c1,"5.62 µM [falling, partial curve, poor fit]","0.316 µM [falling, full curve]"
CCCC(=O)Nc1ccc(Sc2ccc([N+](=O)[O-])cc2)cc1,"35.5 µM [rising, single point]","35.5 µM [rising, single point]"
CCCCN(CCCC)C(=O)CSc1nnc(-c2cc(OC)c(OC)c(OC)c2)o1,–,"12.6 µM [rising, partial curve, poor fit]"
O=C(c1ccccc1F)N1CCN(Cc2ccccc2F)CC1,–,"15.8 µM [rising, single point]"
COc1ccc(CNC(=O)C(c2cccs2)N(Cc2ccco2)C(=O)Cc2cccs2)cc1 (stereo not drawn),–,"35.5 µM [rising, single point]"
O=S(=O)(c1ccc(OCC2CO2)cc1)c1ccc(OCC2CO2)cc1 (stereo not drawn),–,"3.16 µM [rising, single point]"
CCC(=O)NNC(=O)CCC(=O)Nc1cccc(Cl)c1C,"0.00316 µM [falling, full curve]",–
Cc1c(Cl)c(C(=O)NC2C3CC4CC(C3)CC2C4)nn1C (stereo not drawn),"14.1 µM [falling, partial curve, poor fit]","25.1 µM [falling, single point]"
CNC(=O)C1CCC(Cn2c(=O)c3sccc3n(CC(=O)Nc3cc(F)ccc3F)c2=O)CC1 (stereo not drawn),"0.562 µM [falling, full curve, poor fit]",–
COc1cn(CC(=O)Nc2cc(C)ccc2C)c(CN2CCCCC2)cc1=O,"0.0251 µM [rising, full curve]","2.24 µM [rising, single point]"
CCN1C(=O)CS/C1=N\S(=O)(=O)c1ccc(Cl)cc1,"0.112 µM [falling, full curve]","1.41 µM [falling, full curve]"

# Filtered by structure: the entries above containing an aryl thioether with sulfur outside any ring
Compound,AC50 [1],AC50 [2]
Nn1c(SCc2ccc(Br)cc2)nnc1-c1ccccn1,–,"0.00501 µM [falling, full curve, poor fit]"
Cc1ccc(Nc2nnc(SCC(=O)Nc3cccc(S(=O)(=O)NC4=NCCCCC4)c3)s2)c(C)c1,"10 µM [rising, single point]",–
CSc1cnc2c(N)nc(N(C)C)nc2n1,–,"35.5 µM [rising, single point]"
CCCC(=O)Nc1ccc(Sc2ccc([N+](=O)[O-])cc2)cc1,"35.5 µM [rising, single point]","35.5 µM [rising, single point]"
CCCCN(CCCC)C(=O)CSc1nnc(-c2cc(OC)c(OC)c(OC)c2)o1,–,"12.6 µM [rising, partial curve, poor fit]"
